# Results: the supplement of paper PMC8728848
# The other results are listed elsewhere or left out.
# B1: PX14343C-bfa-541-26-541 (Bacteroides fragilis) (protein)
# chain: KAPLDEIADDSFWSDETLVKYYVNDLYSEISVDGLQLQENRSDNSVSAQRDKYRASWFKFNYDMVSASDPQDDDVWEDYYVKVRKCNRFFERIGTSTIEESEKSRLTGEVHFLRAMFYFEMVKRYGGVILLDKVLTMEDNWEIPRSSEKECYDFILEDLKKATEMLPASYGSREKGRATKGAAYALKSRVELYDKRYEDVIKSCAEVYKLGYELVDGTTPEKYRSIWWTTNKDNKEIIFDVQYKSPDVYNNMMVCNMVTYINDKYGDRGWGGLGPTQELIDAFEMADGTPATQYSQAPADQVFDINTCGIYEGREPRFYANIVFHGSQIFFNADKGAVTVDRYLMDTPDKGDGSLTGYNVWKWIDYDNYNYPYAGAGSPDFSTNWIILRYAEIYLNDAEARLETGDVEGARKAVNMIRQRVGLPDLTESDPEKLRELIRKERRIEFAFEEQRFYDVRRWKIGPETQTTLHGVRFVSPTEFKVTKTDIRTWNDRLYLTPVPHDEIVRSSVLKQNLGY
# How the values were obtained:
# Test in all cases: glycan array binding signal (z-score within array); higher = stronger binding
# Conditions in all cases: glycan notation: IUPAC condensed, linker removed
# [1] = target: Gal(b1-4)GlcNAc(b1-3)Gal(b1-4)GlcNAc(b1-2)[Gal(b1-4)GlcNAc(b1-3)Gal(b1-4)GlcNAc(b1-6)]Man(a1-6)[Gal(b1-4)GlcNAc(b1-3)Gal(b1-4)GlcNAc(b1-2)Man(a1-3)]Man(b1-4)GlcNAc(b1-4)GlcNAc
# Method in brief: (§1)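 Negative Z-scores can be read as non-binding. The Z-score is calculated within each array and then averaged across arrays of one protein sequence at different concentrations or buffers and across linkers. Arrays, 3228 in all, were curated from the Consortium for Functional Glycomics database and kept only where the protein sequence was available.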
# [2] = target: Gal(b1-4)GlcNAc(b1-3)Gal(b1-4)GlcNAc(b1-2)[Gal(b1-4)GlcNAc(b1-3)Gal(b1-4)GlcNAc(b1-6)]Man(a1-6)[Gal(b1-4)GlcNAc(b1-3)Gal(b1-4)GlcNAc(b1-2)Man(a1-3)]Man(b1-4)GlcNAc(b1-4)[Fuc(a1-6)]GlcNAc
# Method in brief: as §1
# [3] = target: Gal(b1-4)GlcNAc(b1-3)Gal(b1-4)GlcNAc(b1-3)Gal(b1-4)GlcNAc
# Method in brief: as §1
# [4] = target: Gal(b1-4)GlcNAc(b1-3)Gal(b1-4)GlcNAc(b1-3)Gal(b1-4)GlcNAc(b1-2)Man(a1-3)[Gal(b1-4)GlcNAc(b1-3)Gal(b1-4)GlcNAc(b1-3)Gal(b1-4)GlcNAc(b1-2)Man(a1-6)]Man(b1-4)GlcNAc(b1-4)GlcNAc
# Method in brief: as §1
# [5] = target: Gal(b1-4)GlcNAc(b1-3)Gal(b1-4)GlcNAc(b1-3)Gal(b1-4)GlcNAc(b1-2)Man(a1-3)[Gal(b1-4)GlcNAc(b1-3)Gal(b1-4)GlcNAc(b1-3)Gal(b1-4)GlcNAc(b1-2)Man(a1-6)]Man(b1-4)GlcNAc(b1-4)[Fuc(a1-6)]GlcNAc
# Method in brief: as §1
# [6] = target: Gal(b1-4)GlcNAc(b1-3)Gal(b1-4)GlcNAc(b1-3)Gal(b1-4)GlcNAc(b1-2)[Gal(b1-4)GlcNAc(b1-3)Gal(b1-4)GlcNAc(b1-3)Gal(b1-4)GlcNAc(b1-6)]Man(a1-6)[Gal(b1-4)GlcNAc(b1-3)Gal(b1-4)GlcNAc(b1-3)Gal(b1-4)GlcNAc(b1-2)Man(a1-3)]Man(b1-4)GlcNAc(b1-4)[Fuc(a1-6)]GlcNAc
# Method in brief: as §1
# [7] = target: Gal(b1-4)GlcNAc(b1-3)Gal(b1-4)GlcNAc(b1-3)Gal(b1-4)GlcNAc(b1-3)Gal(b1-4)GlcNAc(b1-2)Man(a1-3)[Gal(b1-4)GlcNAc(b1-3)Gal(b1-4)GlcNAc(b1-3)Gal(b1-4)GlcNAc(b1-3)Gal(b1-4)GlcNAc(b1-2)Man(a1-6)]Man(b1-4)GlcNAc(b1-4)GlcNAc
# Method in brief: as §1
# [8] = target: Gal(b1-4)GlcNAc(b1-3)Gal(b1-4)GlcNAc(b1-3)Gal(b1-4)GlcNAc(b1-3)Gal(b1-4)GlcNAc(b1-2)Man(a1-3)[Gal(b1-4)GlcNAc(b1-3)Gal(b1-4)GlcNAc(b1-3)Gal(b1-4)GlcNAc(b1-3)Gal(b1-4)GlcNAc(b1-2)Man(a1-6)]Man(b1-4)GlcNAc(b1-4)[Fuc(a1-6)]GlcNAc
# Method in brief: as §1
# [9] = target: Gal(b1-4)GlcNAc(b1-3)Gal(b1-4)GlcNAc(b1-3)Gal(b1-4)GlcNAc(b1-3)Gal(b1-4)GlcNAc(b1-2)[Gal(b1-4)GlcNAc(b1-3)Gal(b1-4)GlcNAc(b1-3)Gal(b1-4)GlcNAc(b1-3)Gal(b1-4)GlcNAc(b1-6)]Man(a1-6)[Gal(b1-4)GlcNAc(b1-3)Gal(b1-4)GlcNAc(b1-3)Gal(b1-4)GlcNAc(b1-3)Gal(b1-4)GlcNAc(b1-2)Man(a1-3)]Man(b1-4)GlcNAc(b1-4)[Fuc(a1-6)]GlcNAc
# Method in brief: as §1
# [10] = target: Gal(b1-4)GlcNAc(b1-3)Gal(b1-4)GlcNAc(b1-3)Gal(b1-4)GlcNAc(b1-3)Gal(b1-4)GlcNAc(b1-3)Gal(b1-4)GlcNAc(b1-2)Man(a1-3)[Gal(b1-4)GlcNAc(b1-3)Gal(b1-4)GlcNAc(b1-3)Gal(b1-4)GlcNAc(b1-3)Gal(b1-4)GlcNAc(b1-3)Gal(b1-4)GlcNAc(b1-2)Man(a1-6)]Man(b1-4)GlcNAc(b1-4)GlcNAc
# Method in brief: as §1
# [11] = target: Gal(b1-4)GlcNAc(b1-3)Gal(b1-4)GlcNAc(b1-3)Gal(b1-4)GlcNAc(b1-3)Gal(b1-4)GlcNAc(b1-3)Gal(b1-4)GlcNAc(b1-2)Man(a1-3)[Gal(b1-4)GlcNAc(b1-3)Gal(b1-4)GlcNAc(b1-3)Gal(b1-4)GlcNAc(b1-3)Gal(b1-4)GlcNAc(b1-3)Gal(b1-4)GlcNAc(b1-2)Man(a1-6)]Man(b1-4)GlcNAc(b1-4)[Fuc(a1-6)]GlcNAc
# Method in brief: as §1
# [12] = target: Gal(b1-4)GlcNAc(b1-3)Gal(b1-4)GlcNAc(b1-3)Gal(b1-4)GlcNAc(b1-3)Gal(b1-4)GlcNAc(b1-3)Gal(b1-4)GlcNAc(b1-2)[Gal(b1-4)GlcNAc(b1-3)Gal(b1-4)GlcNAc(b1-3)Gal(b1-4)GlcNAc(b1-3)Gal(b1-4)GlcNAc(b1-3)Gal(b1-4)GlcNAc(b1-6)]Man(a1-6)[Gal(b1-4)GlcNAc(b1-3)Gal(b1-4)GlcNAc(b1-3)Gal(b1-4)GlcNAc(b1-3)Gal(b1-4)GlcNAc(b1-3)Gal(b1-4)GlcNAc(b1-2)Man(a1-3)]Man(b1-4)GlcNAc(b1-4)[Fuc(a1-6)]GlcNAc
# Method in brief: as §1
# [13] = target: Gal(b1-4)GlcNAc(b1-3)Gal(b1-4)GlcNAc(b1-3)Gal(b1-4)GlcNAc(b1-3)Gal(b1-4)GlcNAc(b1-3)Gal(b1-4)GlcNAc(b1-3)Gal(b1-4)GlcNAc(b1-2)Man(a1-3)[Gal(b1-4)GlcNAc(b1-3)Gal(b1-4)GlcNAc(b1-3)Gal(b1-4)GlcNAc(b1-3)Gal(b1-4)GlcNAc(b1-3)Gal(b1-4)GlcNAc(b1-3)Gal(b1-4)GlcNAc(b1-2)Man(a1-6)]Man(b1-4)GlcNAc(b1-4)GlcNAc
# Method in brief: as §1
# [14] = target: Gal(b1-4)GlcNAc(b1-3)Gal(b1-4)GlcNAc(b1-3)GalNAc
# Method in brief: as §1
# [15] = target: Gal(b1-4)GlcNAc(b1-3)Gal(b1-4)GlcNAc(b1-3)[Gal(b1-4)GlcNAc(b1-3)Gal(b1-4)GlcNAc(b1-6)]GalNAc
# Method in brief: as §1
# [16] = target: Gal(b1-4)GlcNAc(b1-3)Gal(b1-4)GlcNAc(b1-6)[Gal(b1-3)]GalNAc
# Method in brief: as §1
# [17] = target: Gal(b1-4)GlcNAc(b1-3)Gal(b1-4)[Fuc(a1-3)]GlcNAc(b1-3)Gal(b1-4)[Fuc(a1-3)]GlcNAc
# Method in brief: as §1
# [18] = target: Gal(b1-4)GlcNAc(b1-3)GalNAc
# Method in brief: as §1
# [19] = target: Gal(b1-4)GlcNAc(b1-3)[Fuc(a1-3)GlcNAc(b1-6)]Gal(b1-4)Glc
# Method in brief: as §1
# [20] = target: Gal(b1-4)GlcNAc(b1-3)[Gal(b1-4)GlcNAc(b1-6)]Gal(b1-4)GlcNAc
# Method in brief: as §1
# [21] = target: Gal(b1-4)GlcNAc(b1-3)[GlcNAc(b1-6)]Gal(b1-4)GlcNAc
# Method in brief: as §1
# [22] = target: Gal(b1-4)GlcNAc(b1-6)Gal(b1-4)GlcNAc
# Method in brief: as §1
# [23] = target: Gal(b1-4)GlcNAc(b1-6)GalNAc
# Method in brief: as §1
# [24] = target: Gal(b1-4)GlcNAc(b1-6)[Gal(b1-3)]GalNAc
# Method in brief: as §1
# [25] = target: Gal(b1-4)GlcNAc(b1-6)[Gal(b1-4)GlcNAc(b1-3)]GalNAc
# Method in brief: as §1
# [26] = target: Gal(b1-4)GlcNAc6P
# Method in brief: as §1
# [27] = target: Gal(b1-6)Gal
# Method in brief: as §1
# [28] = target: Gal3S(b1-3)GalNAc
# Method in brief: as §1
# [29] = target: Gal3S(b1-3)GlcNAc
# Method in brief: as §1
# [30] = target: Gal3S(b1-3)[Fuc(a1-4)]GlcNAc
# Method in brief: as §1
# [31] = target: Gal3S(b1-4)Glc
# Method in brief: as §1
# [32] = target: Gal3S(b1-4)Glc6S
# Method in brief: as §1
# [33] = target: Gal3S(b1-4)GlcNAc
# Method in brief: as §1
# [34] = target: Gal3S(b1-4)[Fuc(a1-3)]Glc6S
# Method in brief: as §1
# [35] = target: Gal3S(b1-4)[Fuc(a1-3)]GlcNAc
# Method in brief: as §1
# [36] = target: Gal3S(b1-4)[Fuc(a1-3)]GlcNAc6S
# Method in brief: as §1
# [37] = target: Gal3S4S(b1-4)GlcNAc
# Method in brief: as §1
# [38] = target: Gal3S6S(b1-4)GlcNAc
# Method in brief: as §1
# [39] = target: Gal3S6S(b1-4)GlcNAc6S
# Method in brief: as §1
# [40] = target: Gal4S(b1-4)GlcNAc
# Method in brief: as §1
# [41] = target: Gal4S6S(b1-4)GlcNAc
# Method in brief: as §1
# [42] = target: Gal6P(b1-4)GlcNAc
# Method in brief: as §1
# [43] = target: Gal6S(b1-3)GlcNAc
# Method in brief: as §1
# [44] = target: Gal6S(b1-3)GlcNAc6S
# Method in brief: as §1
# [45] = target: Gal6S(b1-4)Glc
# Method in brief: as §1
binder,measurement,setting,value
B1,glycan array binding signal (z-score),[1],0.419
same,glycan array binding signal (z-score),[2],-0.151
same,glycan array binding signal (z-score),[3],-1.14
same,glycan array binding signal (z-score),[4],1.23
same,glycan array binding signal (z-score),[5],-0.231
same,glycan array binding signal (z-score),[6],2.43
same,glycan array binding signal (z-score),[7],0.477
same,glycan array binding signal (z-score),[8],1.39
same,glycan array binding signal (z-score),[9],0.076
same,glycan array binding signal (z-score),[10],0.519
same,glycan array binding signal (z-score),[11],1.37
same,glycan array binding signal (z-score),[12],0.758
same,glycan array binding signal (z-score),[13],0.381
same,glycan array binding signal (z-score),[14],0.28
same,glycan array binding signal (z-score),[15],-0.217
same,glycan array binding signal (z-score),[16],-0.448
same,glycan array binding signal (z-score),[17],0.836
same,glycan array binding signal (z-score),[18],-0.581
same,glycan array binding signal (z-score),[19],-0.807
same,glycan array binding signal (z-score),[20],-0.227
same,glycan array binding signal (z-score),[21],-0.998
same,glycan array binding signal (z-score),[22],-0.286
same,glycan array binding signal (z-score),[23],0.165
same,glycan array binding signal (z-score),[24],-0.135
same,glycan array binding signal (z-score),[25],0.249
same,glycan array binding signal (z-score),[26],-0.341
same,glycan array binding signal (z-score),[27],-0.47
same,glycan array binding signal (z-score),[28],-0.409
same,glycan array binding signal (z-score),[29],-0.147
same,glycan array binding signal (z-score),[30],0.181
same,glycan array binding signal (z-score),[31],-0.539
same,glycan array binding signal (z-score),[32],0.2
same,glycan array binding signal (z-score),[33],-0.427
same,glycan array binding signal (z-score),[34],2.16
same,glycan array binding signal (z-score),[35],-0.026
same,glycan array binding signal (z-score),[36],-0.296
same,glycan array binding signal (z-score),[37],0.497
same,glycan array binding signal (z-score),[38],0
same,glycan array binding signal (z-score),[39],-0.125
same,glycan array binding signal (z-score),[40],-0.84
same,glycan array binding signal (z-score),[41],0.123
same,glycan array binding signal (z-score),[42],-0.386
same,glycan array binding signal (z-score),[43],-0.317
same,glycan array binding signal (z-score),[44],-0.427
same,glycan array binding signal (z-score),[45],-0.235

# Shown bar-delimited: entries from further up
binder | measurement | setting | value
B1 | glycan array binding signal (z-score) | [41] | 0.123
same | glycan array binding signal (z-score) | [42] | -0.386
